Measurements as given in the supplement of paper PMC8616043.
Structures can show the parent of a compound that is named as a salt. This is one part of the list. Repeats in this data set agree poorly, so a single value says little.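 PR50, a 50-repeat proline–arginine dipeptide protein from C9ORF72 (ALS/FTD), was expressed by transfection in U-2 OS human cells stably carrying a GFP sensor with import and classical export signals. Per-well nuclear-minus-cytoplasm GFP, normalized between in-plate DMSO (low) and PR-only (high), was scored versus other test wells; compounds well below zero were hits reversing PR.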

Each molecule was assayed on U-2 OS NCT-C biosensor cells expressing PR50 (assay: Z-score of normalised NCT-C biosensor translocation index in PR50-expressing cells; higher = more nuclear biosensor (more disrupted nuclear export)). Conditions: 3 µM; 24 h.

SMILES | Z-score
CCCCC(F)(F)[C@@]1(O)CC[C@H]2[C@@H](CC(=O)[C@@H]2CCCCCCC(=O)O)O1 [Lubiprostone] | inactive: -1.04
COc1ccc(-c2cc3ncc(C)n3c(Nc3ncccc3C(N)=O)n2)cc1OC [BAY 61-3606 hydrochloride hydrate] | inactive: -0.478
CCC(=O)O[C@]1(C(=O)CCl)[C@@H](C)C[C@H]2[C@@H]3CCC4=CC(=O)C=C[C@]4(C)[C@@]3(F)[C@@H](O)C[C@@]21C [Clobetasol Propionate] | inactive: 1.03
O=C1C[C@@H](c2ccc(O)cc2)Oc2cc(O)cc(O)c21 [Naringenin] | inactive: -0.483
CC(C)C[C@H](NP(=O)(O)O[C@H]1O[C@H](C)[C@@H](O)[C@H](O)[C@@H]1O)C(=O)N[C@@H](Cc1c[nH]c2ccccc12)C(=O)O [Phosphoramidon disodium] | inactive: -0.982
CC(/C=C/c1cccc(Oc2ccc(F)cc2)c1)N(O)C(N)=O (stereo not given) | inactive: 3.27
O=c1c(O)c(-c2ccc(O)cc2O)oc2cc(O)cc(O)c12 [Morin] | inactive: -0.336
COc1ccc(C2CNC(=O)C2)cc1OC1CCCC1 (stereo not given) [Rolipram] | inactive: -0.954
O=c1c(-c2ccc(O)cc2)coc2cc(O[C@@H]3O[C@H](CO)[C@@H](O)[C@H](O)[C@H]3O)ccc12 [Daidzin] | inactive: -0.554
CCCCCCCCCCCCCCCC(=O)O[C@@H]1[C@@H](O)[C@@H](O)[C@@H]([C@H](NC(=O)[C@@H]2C[C@@H](CCC)CN2C)[C@H](C)Cl)O[C@@H]1SC [Clindamycin Palmitate·HCl] | inactive: -0.705
O=C(O)C1=CCCNC1 [Guvacine hydrochloride] | inactive: -0.514
Nc1ncnc2c1nc(Sc1ccc(Cl)cc1)n2C1OC2COP(=O)(O)O[C@@H]2[C@@H]1O (stereo not given in full) [8-(4-Chlorophenylthio)-cAMP sodium] | inactive: -0.532
Nc1ncnc2c1c(I)cn2[C@@H]1O[C@H](CO)[C@@H](O)[C@H]1O [5-Iodotubercidin] | inactive: -1.38
CC1Cc2ccccc2N1NC(=O)c1ccc(Cl)c(S(N)(=O)=O)c1 (stereo not given) [Indapamide] | inactive: 0.543
CC(C)(C)[C@]1(O)CCN2C[C@H]3c4ccccc4CCc4cccc(c43)[C@@H]2C1 [(+)-Butaclamol hydrochloride] | inactive: 0.345
CC(C)(C)[C@]1(O)CCN2C[C@H]3c4ccccc4CCc4cccc(c43)[C@@H]2C1 (racemic) [(±)-Butaclamol hydrochloride] | inactive: 3.13
Nc1nc2[nH]c(=O)cnc2c(=O)[nH]1 [Isoxanthopterin] | inactive: 0.0902
CNC(=O)c1cnn(-c2nc(N)c3ncn([C@@H]4O[C@H](CO)[C@@H](O)[C@H]4O)c3n2)c1 [Regadenoson] | inactive: -0.242
CO/N=C(\C(=O)N[C@@H]1C(=O)N2C(C(=O)O)=C(COC(N)=O)CS[C@H]12)c1ccco1 [Cefuroxime·Na] | inactive: 0.0218
Nc1ccc(S(=O)(=O)Nc2ccnn2-c2ccccc2)cc1 [Sulfaphenazole] | inactive: -0.403
C=CCN1CCc2c(cc(O)c(O)c2Br)[C@@H](c2ccccc2)C1 [R(+)-6-Bromo- APB  hydrobromide] | inactive: 4.09
Cc1cccc(C#Cc2ccccc2)n1 [6-Methyl-2- (phenylethynyl) pyridine hydrochloride] | inactive: -0.344

Given comma-delimited: part of the list above.
SMILES,Z-score
COc1ccc(C2CNC(=O)C2)cc1OC1CCCC1 (stereo not given) [Rolipram],inactive: -0.954
O=c1c(-c2ccc(O)cc2)coc2cc(O[C@@H]3O[C@H](CO)[C@@H](O)[C@H](O)[C@H]3O)ccc12 [Daidzin],inactive: -0.554
CCCCCCCCCCCCCCCC(=O)O[C@@H]1[C@@H](O)[C@@H](O)[C@@H]([C@H](NC(=O)[C@@H]2C[C@@H](CCC)CN2C)[C@H](C)Cl)O[C@@H]1SC [Clindamycin Palmitate·HCl],inactive: -0.705
O=C(O)C1=CCCNC1 [Guvacine hydrochloride],inactive: -0.514

More results

SMILES | Z-score
c1ccc(C(NCc2cccnc2)(c2ccccc2)c2ccccc2)cc1 | inactive: 1.26
O=C1CC2(CCCC2)CC(=O)N1CCCCN1CCN(c2ncccn2)CC1 [Buspirone hydrochloride] | inactive: 5.31
O=C1CC2(CCCC2)CC(=O)N1CCCCN1CCN(c2ncccn2)CC1 [Buspirone·HCl] | inactive: 0.381
Cc1cc(C)c(/C=C2\C(=O)Nc3ccccc32)[nH]1 | inactive: -0.446
Nc1nc(=O)n(C2CC(O)C(CO)O2)cc1F (stereo not given) [2'-Deoxy-5-fluorocytidine] | inactive: -0.71
CNC(C)C1CCC(N)C(OC2C(N)CC(N)C(OC3OCC(C)(O)C(NC)C3O)C2O)O1 (stereo not given) [Gentamycin Sulfate] | inactive: 0.556
CCCc1nc(C)c2c(=O)nc(-c3cc(S(=O)(=O)N4CCN(CC)CC4)ccc3OCC)[nH]n12 [Vardenafil] | inactive: 0.681
CN1CCN(c2nc3cc(C(F)(F)F)ccc3n3cccc23)CC1 | inactive: -1.32
COCCOC(=O)C1=C(C)NC(C)=C(C(=O)OC/C=C/c2ccccc2)C1c1cccc([N+](=O)[O-])c1 (stereo not given) [Cilnidipine] | inactive: -1.2
CC(C)=CCC/C(C)=C/CC/C(C)=C/CC/C(C)=C/CC/C(C)=C/CC/C(C)=C/CC/C(C)=C/CC/C(C)=C/CC/C(C)=C/CO [Solanesol] | inactive: -0.18
CO[C@@]12[C@H](COC(N)=O)C3=C(C(=O)C(C)=C(N)C3=O)N1C[C@@H]1N[C@@H]12 [Mitomycin C] | inactive: 0.0605
CC1=Nc2ccc(Cl)cc2S(=O)(=O)N1 [Diazoxide] | inactive: 0.245
Cc1ccc(Cl)c(Nc2ccccc2C(=O)O)c1Cl [Meclofenamic acid sodium salt] | inactive: 0.314
C=C1/C(=C\C=C2/CCC[C@]3(C)[C@@H]([C@H](C)/C=C/[C@@H](O)C4CC4)CC[C@@H]23)C[C@@H](O)C[C@@H]1O [Calcipotriene] | inactive: -0.187
CN(C)CCOc1ccc(/C(=C(/CCCl)c2ccccc2)c2ccccc2)cc1 [Toremifene Base] | inactive: 0.103
C[C@H]1C[C@H]2[C@@H]3CCC4=CC(=O)C=C[C@]4(C)[C@@]3(F)[C@@H](O)C[C@]2(C)[C@@]1(O)C(=O)CO [Betamethasone] | inactive: 1.92
CCCC(CCC)C(=O)NO [Valproic acid hydroxamate] | inactive: 0.017
CCCn1c(=O)c2c(ncn2C)n(CCC)c1=O [1,3-Dipropyl-7- methylxanthine] | inactive: -0.74
Nc1ncnc2c1ncn2[C@@H]1O[C@H](COP(=O)(O)CP(=O)(O)OP(=O)([O-])O)[C@@H](O)[C@H]1O.[Li+] [alpha,beta-Methylene adenosine 5'- triphosphate lithium salt] | inactive: -0.706
COc1cc(NS(C)(=O)=O)ccc1Nc1c2ccccc2nc2ccccc12 [Amsacrine hydrochloride] | inactive: -0.0466
COc1ccc(/C=C/C(=O)c2c(O)cc(OC)cc2OC)cc1 [Flavokawain A] | inactive: -0.393
CN(C)c1ccc(/C=C2/C(=O)Nc3ccccc32)cc1 | inactive: -0.265

SMILES | Z-score
COc1ccccc1S(=O)(=O)Nc1ccc2c(c1)CN(C)C(=O)N2 | inactive: -1.4
C1CCN2C[C@@H]3C[C@@H](CN4CCCC[C@@H]34)[C@H]2C1 [Spartein sulfate·5H2O] | inactive: 0.467
Nc1nc(=O)c(Br)c(-c2ccccc2)[nH]1 [Bropirimine] | inactive: -0.394
CC1(C)O[C@@H]2C[C@H]3[C@@H]4CCC5=CC(=O)C=C[C@]5(C)[C@@]4(F)[C@@H](O)C[C@]3(C)[C@]2(C(=O)CO)O1 [Triamcinolone Acetonide] | inactive: 0.167
N=C(N)SCCc1c[nH]cn1 [Imetit dihydrobromide] | inactive: 0.782
CC(C)NCC(O)COc1ccc(CC(N)=O)cc1 (racemic) [(±)-Atenolol] | inactive: -0.0804
Cc1cnc(NC(=O)C2=C(O)c3ccccc3S(=O)(=O)N2C)s1 [Meloxicam sodium] | inactive: -0.761
Cc1cnc(NC(=O)C2=C(O)c3ccccc3S(=O)(=O)N2C)s1 [Meloxicam] | inactive: -1.5
O=C(O)CCCc1ccccc1 [Sodium 4-Phenylbutyrate] | inactive: -1.89
O=C(O)CCCc1ccccc1 [Phenylbutyrate·Na] | active: -2.96
O=C(O)CCCc1ccccc1 [Sodium Phenylbutyrate] | inactive: -0.0404
C[C@@H]1C[C@H]2[C@@H]3CCC4=CC(=O)C=C[C@]4(C)[C@@]3(F)[C@@H](O)C[C@]2(C)[C@@]1(O)C(=O)CO [Dexamethasone] | inactive: -0.522
NC(CCCP(=O)(O)O)C(=O)O (racemic) [(±)-2-Amino-5-  phosphono pentanoic acid] | inactive: 0.221
O=C1CCC(c2ccc(-n3ccnc3)cc2)=NN1 [Imazodan] | inactive: 0.167
CCOC(=O)[C@H](CCc1ccccc1)N[C@H]1CCc2ccccc2N(CC(=O)O)C1=O [Benazepril·HCl] | inactive: -0.136
CN1C(=O)C[C@H](C(=O)O)[C@H]1c1cccnc1 [Trans-4-Cotininecarboxylic acid] | inactive: 2.13
CC(C)(C)NC[C@H](O)COc1nsnc1N1CCOCC1 [S(-)-Timolol maleate] | inactive: -0.365
CC(C)(C)NC[C@H](O)COc1nsnc1N1CCOCC1 [(S)-Timolol Maleate] | inactive: 1.73
c1ccc2c(c1)CCC[C@H]2Nc1nc2ccccc2[nH]1 [NS8593  hydrochloride] | inactive: -0.337
COc1cc(C[C@H](C)[C@H](C)Cc2ccc3c(c2)OCO3)ccc1O [Macelignan] | inactive: -0.662
Cc1cc2nc(NCCCO)n(CC(=O)c3cc(C(C)(C)C)c(O)c(C(C)(C)C)c3)c2cc1C | inactive: -0.397
